Numbering of substitutions follows the chain as printed. Results are given in words; binding and its absence hold for the method and conditions named. Binding calls can cover weak binding; strength is not graded here.
B1: 3503-hab064 (antibody, V domains shown)
VH: QVQLVESGGGVVQPGRSLRLSCAASGFTFSSYGMHWVRQAPGKGLEWVAVIWYETSNKYYADSVKGRFTISRDNSKNTLYLQMNNLRAEDTAVYYCARYGGNSGWYWYFDLWGRGTLVTVSS
VL: DIQLTQSPSFLSASVGDRVTITCRASQGISSFLAWYQQKPGTAPKLLIYAASTLQSGVPSRFSGSGSGTEFTLTISSLQPEDFATYCCQQLNSYPFTFGQGTKLEIK
B2: 3503-hab070 (antibody, V domains shown)
VH: B1 VH with Y59F, A61V, N85S, G101A, N102S
VL: B1 VL with T42K
B3: 3503-hab070e1 (antibody, V domains shown)
VH: B1 VH with Y59F, A61V, N85S, G101A, N102S
VL: B1 VL with T42K, C87Y
B4: 3503-mAb064 (antibody, V domains shown)
VH: B1 VH
VL: B1 VL
B5: 3503-mAb070 (antibody, V domains shown)
VH: B1 VH with Y59F, A61V, N85S, G101A, N102S
VL: B1 VL with T42K

The binders below were run against monkey GITR (full length, on cells) (monkey) (assay: flow cytometry (FACS) on 293F-cGITR cells).

binding, binds:
B1, B2, B3, B4, B5

The binders below were run against monkey GITR (full length, on cells) (monkey) (assay: FACS on 293F-cGITR cells, MFI [panel B]).

binding, binds:
B1, B2, B3
